PubChem BioAssay AID588499 (NMMLSC, 2011)
About 610 (0.17%) of roughly 360,000 compounds were called active. The inconclusive results got no clear call from the source; some entries with a clear call stand among them for comparison. Cut-off read from the data, not from the text of the source: active = inhibition above about 30%; inconclusive = no clear call, values can overlap the other calls; inactive = below that.

tested on: Botulinum neurotoxin type A light chain protease (Clostridium botulinum A str. ATCC 3502); test: blockers of BoNT/A LC substrate cleavage – biochemical, flow cytometry, MLPCN library, primary screen (AID 588499); details: multiplex microsphere protease substrate cleavage, at 10 µM, hits give high values; note: plate controls were buffer without enzyme for full effect and enzyme alone for no effect

SMILES	inhibition
Cc1nn(-c2ccc(Cl)cc2)c(=O)c2c(C)noc12	inconclusive: 11.6%
CCCCNC(=O)N(O)C1N(/N=C/c2cccnc2)C(=S)SC1(C)C (stereo not drawn)	inconclusive: -63.6%
O=C(NCCCN1CCOCC1)c1cccs1	inconclusive: 5.4%
CCCNC(=O)C1(C)CCN(Cc2ccc(C)c3ccccc23)C1 (stereo not drawn)	inactive: 0.2%
CNC(=O)C(Sc1nc(C)nc2c1oc1ccccc12)C(C)=O (stereo not drawn)	inactive: 1.8%
CCCCCCCCN1C(=O)[C@H](CC(=O)N2CCN(C(=O)c3ccco3)CC2)C[C@@]2(C(=O)OCC)CCCC=C12	inactive: 0.6%
CSCCC(NC(=O)c1ccccc1)C(=O)NCc1ccc(S(N)(=O)=O)cc1 (stereo not drawn)	inactive: -2.9%
Cc1cc(=O)[nH]c(SCn2nnc3ccccc3c2=O)n1	inactive: 0.3%
COc1ccc(S(=O)(=O)N2CCCCC2c2cc(C(=O)Nc3ccccc3)no2)cc1 (stereo not drawn)	inactive: 0.2%
CN(C)C(=S)NC(C)(C)C	inconclusive: 15.2%
O=C(Nc1nccs1)c1ccc(COc2ccc(Cl)cc2)o1	inconclusive: 0.7%
O=C(Nc1c(Cl)cccc1Cl)c1cc(=O)n(Cc2ccccc2)c(=O)[nH]1	inconclusive: -2.6%
COc1cccc(C(=O)Oc2ccc3ccc(=O)oc3c2)c1	inactive: 1.2%
CCOc1ccc(C(=O)N(CN2CCCC2=O)c2ccccc2)cc1	inconclusive: 2.1%
CCOC(=O)C1CCCN(C(=O)c2ccc(SC(F)(F)F)cc2)CC1 (stereo not drawn)	inactive: -0.4%
O=C(NCc1cccs1)c1ccccc1C(=O)NCc1cccs1	inconclusive: -2.4%
O=C(c1cc2ccccc2o1)N1CC=C(c2ccccc2)CC1	inconclusive: 19.4%
O=C(C1CC(c2cccc(Br)c2)=NO1)N1CCc2ccccc2C1 (stereo not drawn)	inconclusive: -1.2%
COc1ccc(OC)c(Nc2nc(NCCC(C)C)nc(N)c2[N+](=O)[O-])c1	inconclusive: 14.3%
CCNC(=O)n1nccc1C(C)Oc1cccc(C(F)(F)F)c1 (stereo not drawn)	inactive: 1.6%

An excerpt from above in order of formula weight, descending.
SMILES	inhibition
CCOC(=O)C1CCCN(C(=O)c2ccc(SC(F)(F)F)cc2)CC1 (stereo not drawn)	inactive: -0.4%
CCNC(=O)n1nccc1C(C)Oc1cccc(C(F)(F)F)c1 (stereo not drawn)	inactive: 1.6%
Cc1cc(=O)[nH]c(SCn2nnc3ccccc3c2=O)n1	inactive: 0.3%

The list continues:

SMILES	inhibition
COc1ccc(OC)c(-n2c(-c3ccccc3)n[nH]c2=S)c1	inconclusive: 0.8%
Clc1ccc(OCc2nnc(SCCN3CCCCC3)n2Cc2ccco2)cc1	inconclusive: -2%
NNC(=O)CN1C(=O)C2(OCCO2)c2ccccc21	inactive: -0.4%
CN1CCN(C(=S)NC(=O)/C=C/c2cccc3ccccc23)CC1	inconclusive: -4.2%
O=c1cc(C(F)(F)F)[nH]c2c(OC(F)(F)F)cccc12	inconclusive: 6.4%
c1ccc2c3c([nH]c2c1)C1(CCNCC1)NCC3	inconclusive: -32.7%
CN1N=C(C(=O)N2CCCC(N3CCN(c4ccc(F)cc4)CC3)C2)CCC1=O (stereo not drawn)	inactive: 1.5%
Cc1[nH]nc(N=CC2=C(O)CC(C)(C)CC2=O)c1-c1ccc(Cl)cc1	inconclusive: -0.9%
CCn1cnc2c1c(=O)n(CC(=O)Nc1cc(C)on1)c(=O)n2Cc1ccccc1	inconclusive: 0.2%
CCOC(=O)COn1c(SCC(=O)OCC)nc2ccccc2c1=O	inconclusive: 2.8%
CC(C)(C)NC(=O)NC(=O)CSc1n[nH]c(-c2ccccc2Br)n1	inactive: -0.2%
CC1Cc2ccccc2N1C(=O)CSc1nnc(-c2ccccc2)c(-c2ccccc2)n1 (stereo not drawn)	inconclusive: 1%
O=C(CCNC(=O)c1ccc(Br)cc1)NCCCSc1ccccc1	inconclusive: 1.2%
COC(=O)c1cccc(NC(=O)NC(=O)c2ccccc2Cl)c1	inconclusive: 12.4%
CCOC(=O)c1c(C)[nH]c(C(=O)CSc2ccc(Cl)cc2)c1C	inconclusive: -1.5%
COc1cccc(-c2[nH]nc3c2C(c2ccoc2)C(C#N)=C(N)O3)c1 (stereo not drawn)	inconclusive: 2.7%
Cn1c(=O)c(NCCc2ccccc2)c2c3c(cccc31)C(=O)c1ccccc1-2	active: 46.9%
NC(=O)c1ccc(Br)c(S(=O)(=O)N2CCCCC2)c1	active: 35.3%
CCCCn1c(O)c(C(C)=Nc2cccc(C(=O)O)c2)c(=O)[nH]c1=O	inconclusive: 1.3%
CCCN(c1ccc(OCC)cc1)S(=O)(=O)c1ccc2c(c1)NC(=O)CO2	inactive: 0.8%

SMILES	inhibition
CN(C)/C=C/C(=O)c1ccc(Cl)cc1	inconclusive: -5.5%
CC1(C)N2CC3([N+](=O)[O-])CN1CC([N+](=O)[O-])(C2)C3	inconclusive: -36%
Cc1ccc(NC(=O)CN2CCN(C)CC2)cc1S(=O)(=O)N1CCOCC1	inconclusive: -2.7%
CCOC(=O)C1=C(C)Nc2sc(C(=O)c3ccc(OC)cc3)c(N)c2C1c1ccc(C(=O)OC)cc1 (stereo not drawn)	active: 29.8%
O=C(OCC(=O)N1CCN(c2ccccc2)CC1)c1cccc(Cl)c1	inconclusive: -0.8%
c1ccc(Cc2nnc3sc(-c4ccccn4)nn23)cc1	inconclusive: 3.7%
CC1CCCCC1NC(=O)c1ccc(CNc2c(N3CCCC3)c(=O)c2=O)cc1 (stereo not drawn)	inactive: -0.6%
Cc1ccc(C(=O)N/C(=C\c2cccs2)C(=O)NCCCN2CCOCC2)cc1	inactive: 1.1%
O=c1[nH]cnc(O)c1C(c1ccc([N+](=O)[O-])cc1)c1c(O)nc[nH]c1=O	inconclusive: 5.5%
Cc1cccc2nc(-c3cccnc3)c(Nc3ccccc3)n12	inactive: -0.9%
O=C(Nc1ccc2c(c1)OCCO2)C1CCN(S(=O)(=O)c2cccs2)CC1	inconclusive: -0.2%
O=C1CCCc2nc(N3CCN(Cc4ccccc4)CC3)ncc21	inconclusive: 8.3%
CN(C)CCOC(=O)CCCCCCCCC(=O)OCCN(C)C	inconclusive: 4.5%
CC(=O)N1CCc2cc(NC(=O)c3ccc(C)cc3)ccc21	inactive: -3%
O=C1CNCc2[nH]c3ccccc3c2N1c1ccccc1	active: 33.2%
COc1ccc(Nc2nc(-c3c[nH]c4ccccc34)cs2)cc1	inconclusive: 8.5%
CCc1ccc(-c2nc(CN3CCC(C(=O)NCc4ccccc4OC)CC3)c(C)o2)cc1	inconclusive: -1.6%
COc1ccc(-n2nc(C(=O)NCC(=O)NCc3ccco3)c3ccccc3c2=O)cc1Cl	inactive: 1.1%
